Source: ChEMBL document CHEMBL3988442, “University of Dundee, Small-Polar-MMV Screening Library” (2021).

Chains of the proteins cited; added tags and fusions are not shown.
UniProt P9WPC5, whole entry: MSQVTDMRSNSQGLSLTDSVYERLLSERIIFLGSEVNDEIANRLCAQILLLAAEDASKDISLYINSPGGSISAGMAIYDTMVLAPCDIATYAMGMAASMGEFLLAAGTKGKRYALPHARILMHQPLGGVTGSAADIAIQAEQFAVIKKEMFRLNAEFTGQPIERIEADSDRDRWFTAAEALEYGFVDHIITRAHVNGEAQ
UniProt P9WPC3, whole entry partner: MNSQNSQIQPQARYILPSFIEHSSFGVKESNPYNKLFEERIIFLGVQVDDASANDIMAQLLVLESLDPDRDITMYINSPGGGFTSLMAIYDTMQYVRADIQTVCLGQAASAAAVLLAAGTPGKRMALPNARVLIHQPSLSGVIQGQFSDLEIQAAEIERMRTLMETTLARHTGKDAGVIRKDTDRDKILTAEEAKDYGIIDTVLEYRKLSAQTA
UniProt P9WNZ1, whole entry: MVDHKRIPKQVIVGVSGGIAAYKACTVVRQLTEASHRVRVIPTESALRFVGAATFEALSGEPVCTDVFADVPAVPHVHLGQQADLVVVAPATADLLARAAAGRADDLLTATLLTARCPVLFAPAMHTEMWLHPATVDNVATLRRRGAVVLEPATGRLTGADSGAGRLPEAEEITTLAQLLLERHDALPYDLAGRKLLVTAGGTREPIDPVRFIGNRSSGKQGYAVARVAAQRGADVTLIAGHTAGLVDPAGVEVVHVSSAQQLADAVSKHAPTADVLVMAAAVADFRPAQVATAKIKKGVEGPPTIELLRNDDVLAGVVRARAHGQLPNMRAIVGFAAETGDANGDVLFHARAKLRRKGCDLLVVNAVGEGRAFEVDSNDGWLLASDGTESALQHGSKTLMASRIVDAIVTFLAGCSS

Toxoplasma: 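Assay of Toxoplasma gondii numbers, read through their beta-galactosidase reporter with a colour substrate. Compounds at 10 µM. The record gives no direction; the compounds picked for IC50 retests had high values, so higher reads as fewer parasites. Of about 67,000 compounds tested this way, about 260 (0.38%) reached 50% or more in at least one test.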
ClpP1P2: 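ClpP1P2, Mycobacterium tuberculosis (UniProt P9WPC5 and UniProt P9WPC3). Protease assay of ClpP1P2, read by the AMC dye that it sets free. Compounds at 50 µM. Direction is inferred from only a few compounds that gave an IC50; most scored high, so higher reads as stronger inhibition. Most other retested compounds had strongly negative values. About 69,000 compounds were tested under these conditions; 0.015% (about 10) showed 50% or more at least once.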
T. brucei: 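Whole-parasite assay of Trypanosoma brucei over 72 hours; the read-out is not stated. Concentration: 30 µM. Direction is inferred from retests: higher values go with stronger inhibition. Values scatter widely below zero; nearly all retest evidence comes from the higher of the two concentrations used. About 64,000 compounds were tested under these conditions; 1.5% (about 940) showed 50% or more at least once.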
CoaBC: 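Enzyme assay of CoaBC with a phosphate dye (Biomol Green) read at 650 nm. Target: Coenzyme A biosynthesis protein CoaBC, Mycobacterium tuberculosis (UniProt P9WNZ1). Tested at 30 µM. Direction is inferred from only a few compounds that gave an IC50; most scored high, so higher reads as stronger inhibition. Most strong results did not repeat in a second test. Size under these conditions: about 67,000 compounds, about 40 of them at 50% or above in at least one test.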

Values are the deposited “Percent Effect”, in %. How 0% and 100% were set is not recorded. Most values in the screen are low, and negative values occur. The compounds are a random part of those screened. Two or more numbers in one place are separate tests of the same structure; such repeats can differ widely. A dash means the value is not listed here; it may have been measured.

| # | compound | Toxoplasma | ClpP1P2 | T. brucei | CoaBC |
|---|---|---|---|---|---|
| 1 | `Cc1ccc(C(=O)N2CCn3cc(CN4CCCCC4)nc3C2)o1.O=C(O)C(F)(F)F` | -3.88% | - | -22.05% | - |
| 2 | `O=C(Cc1cccs1)NCC1COCc2c(-c3ccoc3)nnn2C1` (centres unmarked) | -5.556% | 5.174% | -70.61% | - |
| 3 | `Cc1ncsc1CN1C[C@@H](OCc2ccccn2)[C@H]2OCCC[C@H]21` | - | 1.155% | - | 6.075% |
| 4 | `CCc1[nH]c2c(CNc3nccc(N)n3)cc(C)cc2c1C` | -21.13% | 4.397% | 13% | -31.82% |
| 5 | `COc1cc(CNC2CCc3nc(C)nn3C2)cc2c1OCO2` (centres unmarked) | 2.478% | -10.49% | - | 7.732% & 82.92% |
| 6 | `CCNc1ncc(C(=O)NCC2OCCc3ccccc32)cn1` (centres unmarked) | -6.238% | -0.2152% | - | -8.4% |
| 7 | `CC[C@@H](CO)Nc1nccc(-c2c[nH]c3cc(C(=O)OC)ccc23)n1` | 35.5% | 7.41% | 72.65% | 2.048% |
| 8 | `CCc1cc(CN(C)C(=O)CN2CC3(CCNCC3)OC2=O)on1` | 1.271% | -5.978% | -19.03% | - |
| 9 | `COc1cccc(C(=O)NCC(O)c2cccs2)c1` (centres unmarked) | 8.21% | -5.397% | -9.453% | -4.051% |
| 10 | `O=C1CCCCN1Cc1cccc(OC(F)F)c1` | 9.955% | -13.02% | -21.23% | 4.084% |
| 11 | `CN(Cc1ccc(Cl)cc1)S(=O)(=O)N(C)Cc1cnn(C)c1` | -2.024% | 2.642% | -23.81% | 7.937% |
| 12 | `COc1ncccc1-c1ncccc1NC(=O)C(C)C` | 1.639% | -9.111% | 34.88% | -4.545% |
| 13 | `O=C(NCCc1ccncc1)c1cccc(S(=O)(=O)N[C@@H]2CCNC2)c1` | 0.2875% | 6.249% | 30.97% | -29.09% |
| 14 | `CCOc1ncccc1NC(=O)N1CCN(c2ccc(O)cc2)CC1` | 12.86% | -18.9% | - | -1.37% |
| 15 | `COCCC1(CNC(=O)NCC2CN(C)CCN2C)CCC1` (centres unmarked) | 6.667% | 15.07% | -11.22% | -3.64% |
| 16 | `CN(c1cccc(C#N)c1)S(=O)(=O)c1cc(C(=O)O)ccc1Cl` | -10.79% | -4.425% | -24.13% | 4.274% |
| 17 | `O=C(NCC1Cn2nnc(-c3cccc(F)c3)c2CO1)c1ccc[nH]1` (centres unmarked) | 6.361% | 3.381% | 45.59% | 8.824% |
| 18 | `COCc1cc(N(C)Cc2cc(C(C)(C)C)n[nH]2)ncn1` | 12.89% | -4.36% | -31% | 8.957% |
| 19 | `[H][C@@]12CN(C(=O)c3cscn3)C[C@@]1([H])N(CC1CCCC1)C(=O)CO2` | 10.05% | - | -7.658% | - |
| 20 | `CCc1nnc(Nc2cccc(C3CCN(CC4CC4)CC3)n2)s1` | 2.036% | 6.542% | 9.66% | -0.1239% |
| 21 | `Cc1nc(C)n(C2CCCN(C(=O)Cc3cccnc3)C2)n1` (centres unmarked) | -0.1151% | -3.544% | 8.745% | 4.348% |
| 22 | `CC(C)c1nnc(N2C[C@@H](CN(C)CCO)[C@@H](CO)C2)s1` | 4.651% | 15.13% | -32.68% | -2.439% |
| 23 | `CCN1CCC2(CC1)CC(NCc1cccc(C)n1)c1ccccc1O2.O=C(O)C(F)(F)F.O=C(O)C(F)(F)F.O=C(O)C(F)(F)F` (centres unmarked) | 15.92% | - | -8.099% | - |
| 24 | `CC(C)(CNc1cccc(Cl)c1)NC(=O)C1CCCN(CC(N)=O)C1` (centres unmarked) | 13.81% | -5.762% | -62.31% | -4.784% |
| 25 | `COCCN1CCc2ccc(=O)n(Cc3csc(C)n3)c2CC1.O=C(O)C(F)(F)F.O=C(O)C(F)(F)F` | -17.36% | - | - | - |
| 26 | `[H][C@@]12C[C@H](O)CCN1C(=O)CN(CCSC(C)(C)C)C2=O` | -0.1698% | - | -14.67% | - |
| 27 | `Cc1cn(-c2ccccc2)nc1NS(=O)(=O)c1cc(C(=O)O)cs1` | -2.408% | -2.582% | -63.1% | -13.01% |
| 28 | `O=C(NCCN1CCCCC1)C(c1ccccc1)N1CCCC1` (centres unmarked) | 2.07% | -14.05% | 21.54% | 1.699% |
| 29 | `CCOc1ncccc1C(=O)N1CCCC(c2nncn2C)C1` (centres unmarked) | 3.138% | -29.11% | - | 2.35% |
| 30 | `COc1cc(OC)cc(-c2noc(CN)n2)c1` | -7.983% | 11.35% | -59.36% | - |
| 31 | `CNC(=O)[C@H]1C[C@H]2OCC[C@H]2N(CCOc2ccc(Cl)cc2)C1` | - | -4.527% | - | 4.206% |
| 32 | `c1cncc(N2CCC(c3ccncc3)CC2)c1` | -2.052% | -12.75% | 4.466% | -9.125% |
| 33 | `[H][C@@]12CN(C(=O)[C@H]3CCCO3)C[C@]1([H])C(=O)N(CC(C)C)C2` | 4.541% | - | -19.62% | - |
| 34 | `CNS(=O)(=O)c1ccc(CN(C)Cc2nc3ccc(F)cc3[nH]2)cc1` | 18.51% | -17.58% | -38.8% | 6.397% |
| 35 | `CC(C)OCCN1CCC(Nc2ncc(Br)cn2)CC1` | -6.876% | -9.116% | 3.871% | -5.825% |
| 36 | `Cc1nn(C)cc1CN(C)c1nccc(-c2cn(C)nc2C)n1` | - | -9.871% | -12.29% | 2.583% |
| 37 | `Cc1n[nH]c(C)c1NC(=O)CN1CCN(c2nccs2)C(C)C1` (centres unmarked) | -37.57% | -14.83% | 0.1458% | 23.25% & 5.67% |
| 38 | `Cc1cc(=O)c2cc(F)ccc2n1CC(=O)O` | 17% | -4.067% | -40.12% | 1.635% |
| 39 | `CCN1CCCC(c2c(-c3ccccc3)ncn2CCc2c[nH]cn2)C1` (centres unmarked) | -6.757% | -7.653% | 21.1% | -16.7% |
| 40 | `O=C(NCc1cncc2c1CCN(C1CCOCC1)C2)c1ccco1` | - | -12.36% | - | 2.303% |

Some entries from above, unchanged:

compound,Toxoplasma,ClpP1P2,T. brucei,CoaBC
Cc1ncsc1CN1C[C@@H](OCc2ccccn2)[C@H]2OCCC[C@H]21,-,1.155%,-,6.075%
CCN1CCCC(c2c(-c3ccccc3)ncn2CCc2c[nH]cn2)C1 (centres unmarked),-6.757%,-7.653%,21.1%,-16.7%
c1cncc(N2CCC(c3ccncc3)CC2)c1,-2.052%,-12.75%,4.466%,-9.125%
CC[C@@H](CO)Nc1nccc(-c2c[nH]c3cc(C(=O)OC)ccc23)n1,35.5%,7.41%,72.65%,2.048%